Assay results reported in PubChem BioAssay AID1794845 (National Center for Advancing Translational Sciences (NCATS), 2023).
Among all 6,900 compounds or so, fewer than 10 were called active. The call rests on the fitted dose curve; in most records, active means well fitted curve in the direction sought with a large enough effect; inconclusive means small, poorly fitted or top-dose-only effect, or another doubt; inactive means no such curve, though single readings can be large or run the other way. Some of the results follow.

Sequences of proteins named here, by UniProt entry; tags and fusion partners are left off. A change or cut given only in a name is not applied to a line headed by its entry.
UniProt C7C422: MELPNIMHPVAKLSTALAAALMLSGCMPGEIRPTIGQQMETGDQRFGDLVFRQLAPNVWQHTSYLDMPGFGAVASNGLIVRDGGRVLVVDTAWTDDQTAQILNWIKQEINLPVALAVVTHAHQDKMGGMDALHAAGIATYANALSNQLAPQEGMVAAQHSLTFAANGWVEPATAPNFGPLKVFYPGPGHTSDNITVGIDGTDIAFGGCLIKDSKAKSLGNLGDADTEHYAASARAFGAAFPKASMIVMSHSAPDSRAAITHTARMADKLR

target: Metallo-beta-lactamase type 2 (Klebsiella pneumoniae) (UniProt C7C422); test: qHTS to identify inhibitors of the New Delhi Metallo-beta-lactamase (NDM): primary screen against the NCATS Gemini Collection; conditions: NDM-1 enzyme, meropenem hydrolysis, absorbance 300 nm; at 38.4 µM (top of the series) unless noted; further: % of control where 0% means no effect
Outline: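 NDM-1 at 2 nM final in 50 mM HEPES pH 7.0, 1 uM ZnSO4, 0.01% Tween20, preincubated >30 min with compound. Meropenem 50 uM final added; absorbance at 300 nm after 30 min.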

Activity % (negative = inhibition), inactive:
O=C(Cc1ccccc1)N1CCCC1c1nc(CCOCC2CC2)no1 (stereo not given) 3.65%
Cc1cc(OC2CN([S+](=O)([O-])c3cccs3)C2)ccc1F -0.389% [at 57.5 µM]
CCCNC(=O)N1CCOC[C@H](Oc2ccc(OC)cc2)C1 11.1% [at 57.5 µM]
c1ccc(CN2CCC(Cc3ccc(CN4CCCC4)cc3)CC2)nc1 -1.57%
COCCNC(=O)C1CCc2sc(C(=O)N(C)C)cc2C1 (stereo not given) -10.8%
Cc1ccoc1C(=O)N1CCc2c(nc(-c3cccnc3)nc2N(C)C)C1 56.2%
CNC(=O)[C@@H]1C[C@H](n2cc(-c3ccc(CN4CC[C@@H](O)C4)cc3)nn2)CN1 3.01%
COc1ccc(CN2Cc3[nH]nc(-c4cnc(OC)nc4)c3CC2=O)cc1 3.12% [at 57.5 µM]
Cc1cnc(-c2ccncc2)n1CCN 27.4%
COC[C@@H]1CN(C(=O)c2ncccc2C)C[C@H]1C(N)=O -1.45%
CS(=O)(=O)N1CCC(Oc2ccc(C(=O)NCCc3ccccn3)cc2Cl)CC1 4.77%
O=C1CCN(CC(O)C(F)(F)F)c2ccccc2CCN1Cc1ccccc1 (stereo not given) 0.677% [at 16.1 µM]
COc1ccc(CCNC(=O)c2c(C)noc2-c2cc(OC)cc(OC)c2)cc1 0.485%
Cc1noc(C)c1CC(=O)N1CCCCCCNC(=O)[C@@H]2CCCC[C@@H]21 7.62%
CCCCN1C(=O)CC[C@H]2CN(C(=O)Cc3c[nH]c(=O)n(C)c3=O)CC[C@H]21 1.9%
CCOc1ccccc1CN1CCC(C)(c2noc(C3CCOCC3)n2)CC1 -5.78%
Cc1nc(-c2cccc(Cl)c2)n(CC(=O)NCc2ccc(F)cc2)c(=O)c1CCO 7.94%
O=C(c1cncs1)N1CCc2c(cc(-c3cccc(F)c3)c(=O)n2CCN2CCCCC2)C1 3.53%
CS(=O)(=O)N1CCCOCCNC(=O)[C@@H]2CCC[C@@H]21 4.06%
CN1CCN(Cc2nc(C3(O)CCN(Cc4ccccc4C(F)(F)F)CC3)cs2)CC1 -3.96%
O=C(N[C@H]1CCN2C(=O)c3ccccc3NC(=O)[C@H]12)c1cccc(F)c1 6.56% [at 57.5 µM]
CC(=O)N1CCN(C(=O)c2cnc(N)nc2-c2ccccc2)CC(O)C1 (stereo not given) -0.312%
COc1ccc(C)cc1NC(=O)C1CCCN(c2cn[nH]c(=O)c2)C1 (stereo not given) 19.9%
CN1C[C@H]2CN(C(=O)c3cccnc3)CCN2C1=O 0.46% [at 77.1 µM]
COc1cccc(-c2cc(-c3cccs3)nc3c(C)noc23)c1 8.45% [at 57.5 µM]
Cc1noc(C)c1-c1cc2c(cc(C)n2C)c(NCc2ccncc2)n1 11.6% [at 57.5 µM]
Cc1nc([C@@H]2CN(C(=O)c3sccc3C)C[C@H]2C(N)=O)n[nH]1 13.7%
COc1cccc(C(=O)N(C)C2CCc3ccccc32)c1 (stereo not given) -0.248% [at 57.5 µM]
COc1ccc(C)cc1NC(=O)CCC[C@@H]1[C@H]2CCCN3CCC[C@@H](CN1C)[C@@H]23 3.49%
CC1CCCCN1CCCNC(=O)c1cc2c(s1)CN(C1CCCC1)C2 (stereo not given) 10.1%
CC(C)Cc1cc(CN2CCC(CO)(CN3CCCC3)CC2)[nH]n1 6.63%
CC[C@H](C)[C@H](N)C(=O)N1CCC(Cn2cc(C3CCCC3)nn2)CC1 19.7%
Cc1nnc2n1CCC(N(C)C(=O)NCCc1ccccc1)CC2 (stereo not given) -3.02%
COc1ccc(C(=O)N2CCN(CCCn3nc4n(c3=O)CCCC4)CC2)cc1 2.05%
CCn1cc(-c2ccc(Cl)cc2)cc1C(=O)N1CCN(c2ccccn2)CC1 -6.17%
c1ccc(C2=NOC3(CCN(C4CCCCC4)CC3)C2)cc1 -5.91%
O=c1c(NS(=O)(=O)Cc2ccccc2)ccc2n1C[C@H]1C[C@@H]2CN(S(=O)(=O)c2ccccc2)C1 25.6%
Cn1cc(-c2cnc(Nc3cccnc3)c3c2CCO3)cn1 16% [at 57.5 µM]
O=C1CCN(C(=O)CCc2ccccc2)CCCC(CO)CCN1 (stereo not given) 13.2%
CNC(=O)c1cc(C2CC2)nc2onc(C3CCCN3C(=O)Cc3ccccn3)c12 (stereo not given) 66.2%
COc1cccc2c1OCCCN(c1cc(C3CC(O)C3)nc(N)n1)C2 (stereo not given) 1.85%
Cc1ccc(C(=O)N2CCCC(n3cc(-c4nc(C5CC5)no4)nn3)C2)s1 (stereo not given) 24.7%
CC(=O)N1CCN(C(=O)C[C@@H]2C[C@@H](C(C)C)[C@H](CNC(=O)c3cncnc3)C=C2C)CC1 17.8%
Cc1oc2c(c1C(=O)N1CCN(C3CCCC3)CC1)CN(Cc1cccc(F)c1)CC2 13.4%
c1cncc(-c2ccnc(NCC(c3cccnc3)N3CCCCC3)n2)c1 (stereo not given) -0.943%
Cc1ccc(-c2cn3c(n2)N(C(=O)C2CCCO2)CCC3)cc1 (stereo not given) 5.7%
CS(=O)(=O)N1CC2(CCN(C3COC3)C2)Cc2ccccc21 (stereo not given) -1.45%
COC1CCC12CCN(Cc1ccc(C)o1)CC2 (stereo not given) -1.31%
COc1cc(C)c(-c2nc(CN3CCCC(CN)C3)c(C)o2)cc1C (stereo not given) 0.794%
CC1(C(=O)N2CCOCC2)CN(Cc2ccccc2)Cc2ccc(Nc3ccccc3)nc21 (stereo not given) 0.551%
Cc1oc(C(C)C)cc1C(=O)N1CC[C@](C)(O)[C@@H](O)C1 1.98%
Cn1cnc(CN2CCNc3cc(Nc4ccccc4)ncc3C2)c1 6% [at 57.5 µM]
CC(=O)Nc1ccc(CN2CCC[C@H]2c2nc(-c3ccc(N4CCC(C(N)=O)CC4)nc3)no2)cc1 45.9%
CC(C)N1C(=O)C2(CCCC2)C1C(=O)N1CCc2ccccc21 (stereo not given) 0.375%
O=C(NCc1ccc(OC(F)(F)F)cc1)c1cc(CN2CCOCC2)on1 -9.04%

3 structures from above, sorted by number of heavy atoms, rising.
Activity % (negative = inhibition), inactive:
c1ccc(C2=NOC3(CCN(C4CCCCC4)CC3)C2)cc1 -5.91%
c1ccc(CN2CCC(Cc3ccc(CN4CCCC4)cc3)CC2)nc1 -1.57%
O=C(c1cncs1)N1CCc2c(cc(-c3cccc(F)c3)c(=O)n2CCN2CCCCC2)C1 3.53%
